Measurements reported in PubChem BioAssay AID504793 (Drosophila RNAi Screening Center, 2011)
The deposit covers about 23,000 reagents; below is a random part of those that have a named target and a result. In the full data, 62 (0.27%) were called active. 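Calls come from follow-up tests whose scores are not deposited, so confirmed genes may have low counts here; counts are not normalised per plate.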 Raw values are not corrected between plates. No sequences are given here.

- Assay: 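Knock-downs allowing continued mitosis even though DNA is damaged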 (primary screen)
- Cell system: Drosophila S2R+ cells
- Reagent: long dsRNA against Drosophila genes, about 0.25 µg dsRNA per well
- Duration: 4 days of dsRNA, then 4 hours of drug before read-out
- Challenge: doxorubicin 0.5 µM for 4 hours to cause double-strand breaks, in cells also given a low, harmless dose of dsRNA against nbs to sensitise the assay
- Read-out: 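Per-well count of mitotic cells stained for phospho-histone H3 after doxorubicin exposure, used as mitotic index; counts are raw and not normalised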
- Direction: mitotic cells: higher = more cells in mitosis, weaker G2 arrest
- Rule for the call: 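a call needs confirmation in secondary tests, with other dsRNAs and a check of mitotic timing without damage, not just a high primary count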
- Calls: active = confirmed in follow-up tests; inactive = not confirmed

E(spl)mbeta-HLH (Enhancer of split mbeta, helix-loop-helix) [DRSC16697]
- mitotic cells, replicate 1: 6
- Outcome: inactive

Fer3 (48 related 3) [DRSC16133]
- mitotic cells, replicate 1: 10
- Outcome: inactive

Fer3 (48 related 3) [DRSC26669]
- mitotic cells, replicate 1: 8
- Outcome: inactive

CG15207 (retired record) [DRSC22791]
- mitotic cells, replicate 1: 10
- Outcome: inactive

CG15207 (retired record) [DRSC29119]
- mitotic cells, replicate 1: 3
- Outcome: inactive

CG6966 [DRSC16156]
- mitotic cells, replicate 1: 5
- Outcome: inactive

CG6966 [DRSC24518]
- mitotic cells, replicate 1: 1
- Outcome: inactive

Copied from the list:
For “Outcome”, CG15207 (retired record) [DRSC29119] reads inactive
CG6966 [DRSC24518], Outcome → inactive
Entry for Fer3 (48 related 3) [DRSC16133] under “mitotic cells, replicate 1”: 10

Further reagents follow:
Wdr37 (WD repeat domain 37) [DRSC14500]
- mitotic cells, replicate 1: 11
- Outcome: inactive

CG30159 [DRSC04981]
- mitotic cells, replicate 1: 5
- Outcome: inactive

CG30159 [DRSC26683]
- mitotic cells, replicate 1: 8
- Outcome: inactive

CG15711 [DRSC06582]
- mitotic cells, replicate 1: 6
- Outcome: inactive

CG6701 [DRSC07007]
- mitotic cells, replicate 1: 2
- Outcome: inactive

Det (Deterin) [DRSC14489]
- mitotic cells, replicate 1: 3
- Outcome: inactive

CG4592 [DRSC02761]
- mitotic cells, replicate 1: 5
- Outcome: inactive

MED6 (Mediator complex subunit 6) [DRSC16500]
- mitotic cells, replicate 1: 8
- Outcome: inactive

GstD5 (Glutathione S transferase D5) [DRSC16686]
- mitotic cells, replicate 1: 3
- Outcome: inactive

GstD5 (Glutathione S transferase D5) [DRSC25144]
- mitotic cells, replicate 1: 4
- Outcome: inactive

CG30480 [DRSC06736]
- mitotic cells, replicate 1: 8
- Outcome: inactive

CG30480 [DRSC28831]
- mitotic cells, replicate 1: 5
- Outcome: inactive

BtbVII (BTB-protein-VII) [DRSC08151]
- mitotic cells, replicate 1: 4
- Outcome: inactive

BtbVII (BTB-protein-VII) [DRSC08415]
- mitotic cells, replicate 1: 4
- Outcome: inactive

BtbVII (BTB-protein-VII) [DRSC25020]
- mitotic cells, replicate 1: 11
- Outcome: inactive

AhcyL2 (Adenosylhomocysteinase like 2) [DRSC14107]
- mitotic cells, replicate 1: 4
- Outcome: inactive
